# For part of these data: The hits were mostly taken out for another list; the other results follow. Records with an inconclusive call do not appear. The entries are a selection whose mix differs from that of the whole data set. A structure can be active in one record and inactive in another. Active and inactive are the calls of the source. How the source made its calls: active means hit-call score of the fitted dose curve at least 0.9, where 1 is the maximum; inconclusive means response in the unintended direction; inactive means score below 0.9.
# By UniProt entry, the sequences of proteins in these tests, tags left out.
# UniProt P04637, whole entry, looked up: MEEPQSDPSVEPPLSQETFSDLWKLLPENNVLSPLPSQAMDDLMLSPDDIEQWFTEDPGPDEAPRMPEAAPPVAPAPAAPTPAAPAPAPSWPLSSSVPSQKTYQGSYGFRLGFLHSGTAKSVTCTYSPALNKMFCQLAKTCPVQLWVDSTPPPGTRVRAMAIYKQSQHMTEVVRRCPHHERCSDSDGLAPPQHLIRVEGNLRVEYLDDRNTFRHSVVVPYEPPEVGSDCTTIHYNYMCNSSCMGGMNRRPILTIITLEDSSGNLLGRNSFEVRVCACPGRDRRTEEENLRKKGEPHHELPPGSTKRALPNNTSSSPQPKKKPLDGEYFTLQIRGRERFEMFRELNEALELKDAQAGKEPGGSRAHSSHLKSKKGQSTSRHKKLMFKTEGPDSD
# Experiments:
# [1] = TOX21_p53_BLA_p4_viability: Viability Assessment in the Tox21 HCT-116 p53 Agonism Beta-lactamase Assay, Phase 4 (AID 2283597);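 further: hits lower the luminescence signal meaning cytotoxicity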
# Procedure, shortened: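 In this multiplexed secondary endpoint, HCT116 cells (4000 per well, compound at 5 h, 16 h treatment) received CellTiter-Glo after the beta-lactamase read. Luminescence after 30 min RT reflects ATP, and falling signal marks cytotoxicity.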
# [2] = TOX21_p53_BLA_p5_viability: Viability Assessment in the Tox21 HCT-116 p53 Agonism Beta-lactamase Assay, Phase 5 (AID 2283600)
# Procedure, shortened: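 Here cell health was gauged by ATP levels in wells holding 4000 cells, each treated 16 h with DMSO-delivered compounds at 217-fold dilution; reduced luminescence marked toxicity.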
# [3] = biological target: Cellular tumor antigen p53 (Homo sapiens) (UniProt P04637); assay: TOX21_p53_BLA_p5_ratio: Tox21 HCT-116 p53 Agonism Beta-lactamase Assay, Ratio, Phase 5 (AID 2283599)
# Procedure, shortened: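 Beta-lactamase reporter ratio (blue 460 nm over green 530 nm, 405 nm excitation) after 2 h CCF4-AM loading, in HCT-116 cells exposed 16 h at 37 C to compounds pinned at 217-fold dilution. Increases relative to DMSO baseline scored.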
# [4] = Tanguay_ZF_120hpf_MORT_legacy: (Legacy) Oregon State University Tanguay Lab 120 Hour Post-fertilization zebrafish Assay for Mortality (AID 2283633);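 on AC50: fitted as increase in binary mortality versus DMSO negative control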
# Procedure, shortened: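 Single dechorionated Tropical 5D embryos were held with test chemical (0.64% DMSO final) from 6 to 120 hpf at 28C under foil. Deaths at 24 or 120 hpf were recorded as binary calls, analysed for increase over DMSO controls.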
# [5] = CCTE_Shafer_MEA_dev_bursting_electrodes_number: CCTE's Neural Network Formation Assay for Number of Bursting Electrodes, Shafer Lab (AID 2284043);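 further: potency is for loss of bursting electrodes relative to DMSO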
# Procedure, shortened: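 Number of electrodes reaching ≥1 burst every 2 min was recorded at DIV 5, 7, 9 and 12 and collapsed as trapezoidal area under the curve. Cultures were rat cortical neurons on MEA plates, dosed continuously from plating with medium and treatment refreshed on DIV 5 and 9.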
# [6] = CCTE_Shafer_MEA_dev_LDH: CCTE's Lactate Dehydrogenase Assay for Cytotoxicity in the Neural Network Formation Assay, Shafer Lab (AID 2284068);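 further: exposure for twelve days from plating with re-dosing on DIV 5 and 9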
# Procedure, shortened: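 Rat cortical primary neurons, MEA culture; dosing day 0–12, full medium plus compound exchange DIV 5, 9. Read-out: LDH enzyme activity, spectrophotometric. DMSO = negative control/baseline; signal loss → cytotoxicity.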
# [7] = Tanguay_ZF_120hpf_AXIS_legacy: (Legacy) Oregon State University Tanguay Lab 120 Hour Post-fertilization zebrafish Assay for Body Axis Malformation (AID 2283635)
# Procedure, shortened: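 Each dechorionated embryo was exposed alone from 6 hpf, with DMSO at 0.64% (vol/vol) and trimethyltin chloride 5 uM as positive control. Axis malformation was recorded at 120 hpf unless the embryo had died.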
# [8] = ACEA_AR_antagonist_AUC_viability: ACEA Biosciences xCELLigence Real-Time Cell Analysis on Androgen Receptor Antagonism for Viability (AID 2283776);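 further: 22Rv1 human prostate cancer cells growing on impedance electrode plates; area under impedance growth curve at 80 h after dosing as viability; hits lower the growth signal relative to DMSO meaning cytotoxicity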
# Procedure, shortened: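 Real-time electrical impedance tracks 22Rv1 proliferation after continuous compound exposure (top 100 uM final, 1:4 steps, 8 concentrations). The 80 h area-under-curve serves as the cytotoxicity readout relative to DMSO.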
# [9] = CCTE_Harrill_HTTr_CellCount_MCF7: CCTE's Cell Proliferation Assessment for the High-Throughput Transcriptomics (HTTr) Platform, Harrill Lab (AID 2284012);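 further: cells exposed to compound for six hours; intended direction is loss of nuclei count meaning fewer cells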
# Procedure, shortened: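 Cell count served as viability reporter: loss of Hoechst-stained nuclei, counted by high content imaging, marks decreased growth or survival. Exposure was 6 h in MCF-7 cells across eight concentrations, with DMSO as baseline.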
# DIO2 (gene 1734) = assay: CCTE_GLTED_hDIO2: CCTE's human Deiodinase 2 (DIO2) Inhibition Assay, Great Lakes Toxicology and Ecology Division (GLTED) Lab (AID 2284050)
# Procedure, shortened: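 Inhibition is judged by reduced iodide release: uninhibited human DIO2 frees iodide from substrate over 3 h, measured afterward by Sandell-Kolthoff colorimetry. Iodinated chemicals or nitrite, iron and thiocyanate may interfere.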
# [10] = Tanguay_ZF_120hpf_JAW_legacy: (Legacy) Oregon State University Tanguay Lab 120 Hour Post-fertilization zebrafish Assay for Jaw Malformation (AID 2283638)
# Procedure, shortened: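 Wild-type 5D embryos, chorion removed at 4 hpf, dosed singly from 6 hpf; 28C static, sealed, foil-covered, to 120 hpf. Endpoint: jaw defect yes/no (brightfield); mortality excludes scoring.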
# [11] = Tanguay_ZF_120hpf_TR_legacy: (Legacy) Oregon State University Tanguay Lab 120 Hour Post-fertilization zebrafish Assay for Touch Response (AID 2283667)
# [12] = system: SRY-box transcription factor 2 (SOX2) Protein Expression, Deisenroth Lab, SOX2 (gene 6657); assay: CCTE_Deisenroth_DEVTOX-GLR_Endo_SOX2: CCTE's DevTox GLR-Endo Assay Evaluation of SRY-box transcription factor 2 (SOX2) Protein Expression, Deisenroth Lab (AID 2284412)
# Procedure, shortened: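 Endpoint is percent SOX2-positive cells (SOX2+ count/total cells) minus 0.2% DMSO control, from high-content imaging of fixed, nuclear-stained RUES2-GLR cells. Dosing twice at 24 h intervals over 48 h differentiation, 1 nM–200 uM in 10 points.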
# [13] = Tanguay_ZF_120hpf_SWIM_legacy: (Legacy) Oregon State University Tanguay Lab 120 Hour Post-fertilization zebrafish Assay for Swim Bladder Malformation (AID 2283654);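 further: swim bladder malformation in each larva scored yes or no under brightfield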
# Procedure, shortened: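 Scoring is binary for swim bladder defects at 120 hpf, by brightfield inspection of zebrafish larvae. Embryos were exposed singly from 6 hpf after pronase dechorionation, at 28C with 0.64% DMSO; mortality excluded scoring.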
# [14] = Tanguay_ZF_120hpf_TRUN_legacy: (Legacy) Oregon State University Tanguay Lab 120 Hour Post-fertilization zebrafish Assay for Truncated Body (AID 2283655)
# Procedure, shortened: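 Single dechorionated zebrafish embryos received test chemical from 6 hpf in 0.64% DMSO, kept at 28C. At 120 hpf, brightfield inspection noted any truncated body.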
# [15] = CCTE_Simmons_CellTiterGLO_HEK293T: Viability Assessment in CCTE's Assays for Thyroperoxidase (TPO) Inhibition, Simmons Lab (AID 2283665);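 on AC50: cells exposed to compound for 24 h before readout; actives reduce ATP signal below DMSO vehicle meaning cytotoxicity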
# Procedure, shortened: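 Cells were seeded overnight, then exposed to an eight-point series up to 87.5 uM final for 24 hours. CellTiter-Glo reagent was added and luminescence read after 20 min, giving ATP-based viability versus DMSO.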
smiles,measurement,setting,value
CCOC(=O)COc1ccc2c(C)c(CCN(CC)CC)c(=O)oc2c1Cl,outcome,[1],inactive
Oc1c(Cl)cc(Cl)c(Cl)c1Cc1c(O)c(Cl)cc(Cl)c1Cl,AC50,[2],active: 70.9 µM
Nc1cc(S(=O)(=O)O)ccc1S(=O)(=O)O,outcome,[3],inactive
CCN(CC)C(=O)c1cccnc1,outcome,[3],inactive
CCc1nn(C2CCCCC2)c2cc(C3(C#N)CCC(C(=O)O)CC3)ccc12 (stereo unspecified),AC50,[4],active: 10.7 µM
CC[C@H](C)C(=O)O[C@H]1C[C@H](O)C=C2C=C[C@H](C)[C@H](CC[C@@H](O)C[C@@H](O)CC(=O)O)[C@H]21,outcome,[4],inactive
same,AC50,[5],active: 1.87 µM
same,AC50,[6],active: 0.319 µM
O=C(O)CCCCC(=O)O,outcome,[7],inactive
CC(=O)CCC(C)C,outcome,[8],inactive
C=CC(=O)NC(C)(C)CS(=O)(=O)O,outcome,[9],inactive
COC(=O)[C@]1(C)CCC[C@@]2(C)[C@H]1CC=C1C=C(C(C)C)CC[C@@H]12,AC50,DIO2 (gene 1734),active: 48.7 µM
CC1=C(/C=C/C(C)=C/C=C/C(C)=C/CO)C(C)(C)CCC1,outcome,[10],inactive
same,outcome,[11],inactive
same,AC50,[12],active: 74.8 µM
CC(C)c1nnc2ccc(-c3ocnc3-c3cc(F)ccc3F)cn12,outcome,[10],inactive
NCCO,outcome,[13],inactive
COc1cc(C=O)ccc1O,AC50,[13],active: 10.3 µM
CC(=O)OCC(COC(C)=O)OC(C)=O,outcome,[14],inactive
CN(C)c1ccc(O)c2c1C[C@H]1C[C@H]3[C@H](N(C)C)C(=O)C(C(N)=O)=C(O)[C@@]3(O)C(=O)C1=C2O,outcome,[15],inactive
CCCCCCOc1ccc(N)cc1,AC50,[15],active: 56.3 µM

# Reference: PubChem BioAssay (EPA / NIEHS)
